# Measured values published in the supplement of paper PMC10849652.
# The chains behind the UniProt entries cited, without tags or fusion partners. Where a name states a change or a piece, a line headed by the entry shows the natural chain unless it says otherwise.
# UniProt Q92564: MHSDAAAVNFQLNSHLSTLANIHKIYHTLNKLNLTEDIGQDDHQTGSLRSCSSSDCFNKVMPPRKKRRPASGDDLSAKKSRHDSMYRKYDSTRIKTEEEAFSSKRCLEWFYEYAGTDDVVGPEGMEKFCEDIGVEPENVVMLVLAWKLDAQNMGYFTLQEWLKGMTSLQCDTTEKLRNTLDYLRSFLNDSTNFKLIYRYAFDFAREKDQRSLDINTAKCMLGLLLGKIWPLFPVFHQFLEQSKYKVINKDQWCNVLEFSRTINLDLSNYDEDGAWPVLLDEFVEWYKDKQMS
# UniProt O60931: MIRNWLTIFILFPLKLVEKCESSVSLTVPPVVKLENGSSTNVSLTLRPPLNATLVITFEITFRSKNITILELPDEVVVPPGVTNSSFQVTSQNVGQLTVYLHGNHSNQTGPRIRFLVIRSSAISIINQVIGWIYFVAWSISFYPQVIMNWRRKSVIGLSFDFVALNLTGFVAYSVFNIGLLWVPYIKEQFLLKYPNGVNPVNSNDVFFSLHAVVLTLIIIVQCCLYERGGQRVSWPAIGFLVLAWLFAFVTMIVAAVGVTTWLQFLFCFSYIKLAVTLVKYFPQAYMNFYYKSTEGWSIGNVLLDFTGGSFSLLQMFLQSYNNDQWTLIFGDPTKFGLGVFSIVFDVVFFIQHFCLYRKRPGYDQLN
# UniProt P25774, whole entry, looked up: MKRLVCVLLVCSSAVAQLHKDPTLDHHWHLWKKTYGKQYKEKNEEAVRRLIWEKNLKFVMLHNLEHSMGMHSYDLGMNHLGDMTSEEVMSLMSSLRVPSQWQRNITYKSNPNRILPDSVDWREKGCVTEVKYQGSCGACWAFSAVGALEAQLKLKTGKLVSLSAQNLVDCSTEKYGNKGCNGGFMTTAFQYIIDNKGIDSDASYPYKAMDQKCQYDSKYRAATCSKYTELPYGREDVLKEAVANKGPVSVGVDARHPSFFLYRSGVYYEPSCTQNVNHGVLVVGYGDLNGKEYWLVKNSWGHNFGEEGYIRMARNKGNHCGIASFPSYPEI
# UniProt Q53TN4: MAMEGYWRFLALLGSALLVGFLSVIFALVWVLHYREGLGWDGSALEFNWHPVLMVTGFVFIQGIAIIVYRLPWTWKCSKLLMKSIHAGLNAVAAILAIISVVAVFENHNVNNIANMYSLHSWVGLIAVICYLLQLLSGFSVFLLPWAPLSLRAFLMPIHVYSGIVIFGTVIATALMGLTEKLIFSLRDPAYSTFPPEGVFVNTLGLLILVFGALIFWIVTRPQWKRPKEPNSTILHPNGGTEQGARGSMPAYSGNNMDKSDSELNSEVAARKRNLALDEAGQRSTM
# UniProt Q9GZU7: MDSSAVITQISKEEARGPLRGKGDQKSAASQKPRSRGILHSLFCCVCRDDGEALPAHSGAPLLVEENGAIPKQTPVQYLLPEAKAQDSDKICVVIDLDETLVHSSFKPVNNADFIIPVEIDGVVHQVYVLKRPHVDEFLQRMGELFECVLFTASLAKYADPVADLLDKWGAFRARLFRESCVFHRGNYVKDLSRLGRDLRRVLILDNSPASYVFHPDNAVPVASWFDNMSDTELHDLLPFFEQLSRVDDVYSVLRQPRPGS
# UniProt O95476: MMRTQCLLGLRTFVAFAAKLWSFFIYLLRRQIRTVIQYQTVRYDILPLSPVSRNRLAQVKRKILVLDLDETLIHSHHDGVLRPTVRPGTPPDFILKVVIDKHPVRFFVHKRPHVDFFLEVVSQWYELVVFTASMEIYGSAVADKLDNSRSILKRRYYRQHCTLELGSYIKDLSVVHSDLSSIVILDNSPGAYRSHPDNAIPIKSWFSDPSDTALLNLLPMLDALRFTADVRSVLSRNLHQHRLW
# UniProt Q9P0U4, whole entry, looked up: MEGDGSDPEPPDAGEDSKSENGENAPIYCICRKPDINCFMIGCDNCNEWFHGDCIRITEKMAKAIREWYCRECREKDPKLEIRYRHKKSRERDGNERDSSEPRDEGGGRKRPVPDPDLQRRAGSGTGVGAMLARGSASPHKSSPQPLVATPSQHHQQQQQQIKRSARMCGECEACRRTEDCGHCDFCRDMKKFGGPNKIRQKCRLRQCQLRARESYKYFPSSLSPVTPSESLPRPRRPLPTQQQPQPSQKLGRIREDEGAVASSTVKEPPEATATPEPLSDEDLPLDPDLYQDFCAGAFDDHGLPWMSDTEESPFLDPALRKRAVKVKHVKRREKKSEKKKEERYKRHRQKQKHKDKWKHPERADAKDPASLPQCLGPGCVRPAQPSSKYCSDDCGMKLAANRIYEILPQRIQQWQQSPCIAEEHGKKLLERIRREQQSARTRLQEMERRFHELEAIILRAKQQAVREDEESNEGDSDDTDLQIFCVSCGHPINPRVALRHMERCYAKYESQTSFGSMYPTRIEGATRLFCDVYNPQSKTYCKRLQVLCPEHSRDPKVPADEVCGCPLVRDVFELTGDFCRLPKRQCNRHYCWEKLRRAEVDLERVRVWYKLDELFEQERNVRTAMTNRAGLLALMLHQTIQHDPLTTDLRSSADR
# UniProt Q9BWK5: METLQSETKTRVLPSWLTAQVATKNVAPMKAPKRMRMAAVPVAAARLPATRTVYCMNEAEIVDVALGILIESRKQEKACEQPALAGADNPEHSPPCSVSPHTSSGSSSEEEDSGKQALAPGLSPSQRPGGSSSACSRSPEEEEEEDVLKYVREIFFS
# UniProt Q6ZWL3: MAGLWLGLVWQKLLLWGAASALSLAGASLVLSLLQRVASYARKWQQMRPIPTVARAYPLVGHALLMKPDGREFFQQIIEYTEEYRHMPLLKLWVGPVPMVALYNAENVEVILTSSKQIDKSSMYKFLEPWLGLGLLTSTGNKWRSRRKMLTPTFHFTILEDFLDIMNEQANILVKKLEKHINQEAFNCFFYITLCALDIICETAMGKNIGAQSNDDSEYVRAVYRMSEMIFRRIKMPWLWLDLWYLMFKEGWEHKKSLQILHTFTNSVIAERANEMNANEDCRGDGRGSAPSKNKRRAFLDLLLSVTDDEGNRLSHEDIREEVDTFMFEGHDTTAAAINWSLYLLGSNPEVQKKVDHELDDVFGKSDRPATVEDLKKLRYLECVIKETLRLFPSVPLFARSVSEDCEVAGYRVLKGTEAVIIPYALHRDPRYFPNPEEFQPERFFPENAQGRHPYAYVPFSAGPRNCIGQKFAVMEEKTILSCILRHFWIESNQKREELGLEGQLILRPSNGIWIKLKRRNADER
# UniProt Q15828: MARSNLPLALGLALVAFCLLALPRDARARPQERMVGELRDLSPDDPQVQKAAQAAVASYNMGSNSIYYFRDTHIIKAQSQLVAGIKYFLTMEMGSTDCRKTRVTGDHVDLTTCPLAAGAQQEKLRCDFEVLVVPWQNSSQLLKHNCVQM
# UniProt Q8WV16: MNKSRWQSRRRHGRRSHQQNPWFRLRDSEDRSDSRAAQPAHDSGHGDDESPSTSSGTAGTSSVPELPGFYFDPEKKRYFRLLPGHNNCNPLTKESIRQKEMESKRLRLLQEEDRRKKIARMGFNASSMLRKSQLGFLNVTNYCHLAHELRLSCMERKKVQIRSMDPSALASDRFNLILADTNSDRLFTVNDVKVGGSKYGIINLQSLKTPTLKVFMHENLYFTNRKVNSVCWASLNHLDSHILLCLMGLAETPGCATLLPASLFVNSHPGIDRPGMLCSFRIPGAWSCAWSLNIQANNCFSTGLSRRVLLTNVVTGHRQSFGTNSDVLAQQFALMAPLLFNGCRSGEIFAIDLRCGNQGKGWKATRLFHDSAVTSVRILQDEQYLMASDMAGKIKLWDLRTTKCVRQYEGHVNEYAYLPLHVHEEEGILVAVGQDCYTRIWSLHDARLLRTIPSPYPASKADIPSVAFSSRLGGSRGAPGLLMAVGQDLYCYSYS
# UniProt Q9Y5B0: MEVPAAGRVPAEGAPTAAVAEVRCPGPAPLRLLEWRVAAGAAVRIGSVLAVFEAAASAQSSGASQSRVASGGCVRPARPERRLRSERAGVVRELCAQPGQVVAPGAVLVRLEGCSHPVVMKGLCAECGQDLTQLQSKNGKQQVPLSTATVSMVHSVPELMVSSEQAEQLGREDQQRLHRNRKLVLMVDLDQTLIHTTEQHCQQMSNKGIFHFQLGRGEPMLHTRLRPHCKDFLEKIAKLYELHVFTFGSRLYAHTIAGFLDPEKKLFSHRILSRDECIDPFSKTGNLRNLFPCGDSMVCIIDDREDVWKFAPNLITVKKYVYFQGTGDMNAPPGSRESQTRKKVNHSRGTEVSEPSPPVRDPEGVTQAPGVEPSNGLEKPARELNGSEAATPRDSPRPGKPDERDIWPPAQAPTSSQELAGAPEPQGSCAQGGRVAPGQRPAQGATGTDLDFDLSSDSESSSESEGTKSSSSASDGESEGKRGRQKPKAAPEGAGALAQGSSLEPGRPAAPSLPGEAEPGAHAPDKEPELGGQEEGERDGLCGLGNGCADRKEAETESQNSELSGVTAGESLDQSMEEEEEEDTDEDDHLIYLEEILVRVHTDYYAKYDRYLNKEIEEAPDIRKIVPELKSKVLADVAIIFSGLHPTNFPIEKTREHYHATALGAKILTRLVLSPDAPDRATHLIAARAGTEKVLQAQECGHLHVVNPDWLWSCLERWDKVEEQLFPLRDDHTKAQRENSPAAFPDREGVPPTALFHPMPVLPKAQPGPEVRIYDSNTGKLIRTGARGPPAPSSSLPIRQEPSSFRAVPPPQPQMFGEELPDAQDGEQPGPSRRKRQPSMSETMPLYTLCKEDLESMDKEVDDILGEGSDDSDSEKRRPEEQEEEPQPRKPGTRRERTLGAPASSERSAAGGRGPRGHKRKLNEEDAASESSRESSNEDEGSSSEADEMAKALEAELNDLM
# UniProt Q2TBE0: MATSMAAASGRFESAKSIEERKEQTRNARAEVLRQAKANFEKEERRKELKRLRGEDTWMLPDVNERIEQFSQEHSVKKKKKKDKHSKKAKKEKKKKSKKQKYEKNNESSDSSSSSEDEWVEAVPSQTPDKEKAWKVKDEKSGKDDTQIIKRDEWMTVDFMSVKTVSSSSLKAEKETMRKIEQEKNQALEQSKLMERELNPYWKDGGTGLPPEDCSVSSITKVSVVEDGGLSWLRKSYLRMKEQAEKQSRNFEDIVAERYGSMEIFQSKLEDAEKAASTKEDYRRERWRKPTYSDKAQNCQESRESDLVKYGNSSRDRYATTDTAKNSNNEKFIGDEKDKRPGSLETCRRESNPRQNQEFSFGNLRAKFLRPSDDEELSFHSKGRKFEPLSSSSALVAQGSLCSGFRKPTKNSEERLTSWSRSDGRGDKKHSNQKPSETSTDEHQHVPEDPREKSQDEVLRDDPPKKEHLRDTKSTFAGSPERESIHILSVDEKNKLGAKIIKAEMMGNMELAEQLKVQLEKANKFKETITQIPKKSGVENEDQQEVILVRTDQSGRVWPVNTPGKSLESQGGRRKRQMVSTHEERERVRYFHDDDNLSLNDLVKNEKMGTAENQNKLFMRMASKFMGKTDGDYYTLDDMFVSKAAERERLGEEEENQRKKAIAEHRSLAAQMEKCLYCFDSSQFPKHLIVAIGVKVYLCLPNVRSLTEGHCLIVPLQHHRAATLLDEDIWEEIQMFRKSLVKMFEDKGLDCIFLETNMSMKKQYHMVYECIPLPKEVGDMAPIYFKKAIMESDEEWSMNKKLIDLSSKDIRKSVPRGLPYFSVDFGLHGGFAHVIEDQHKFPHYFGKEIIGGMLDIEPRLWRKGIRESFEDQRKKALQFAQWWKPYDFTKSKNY
# UniProt Q9UIK4: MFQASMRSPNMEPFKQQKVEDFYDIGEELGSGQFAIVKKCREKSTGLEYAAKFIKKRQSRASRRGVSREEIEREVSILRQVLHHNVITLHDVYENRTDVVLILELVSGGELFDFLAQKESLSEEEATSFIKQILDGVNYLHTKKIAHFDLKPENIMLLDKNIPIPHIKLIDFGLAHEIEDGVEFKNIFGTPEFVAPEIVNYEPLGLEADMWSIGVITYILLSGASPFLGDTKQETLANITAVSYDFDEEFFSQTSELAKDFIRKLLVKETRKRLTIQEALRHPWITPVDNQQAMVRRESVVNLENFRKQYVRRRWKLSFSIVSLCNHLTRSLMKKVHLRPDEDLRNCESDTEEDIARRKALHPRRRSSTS
# UniProt Q9NSA3: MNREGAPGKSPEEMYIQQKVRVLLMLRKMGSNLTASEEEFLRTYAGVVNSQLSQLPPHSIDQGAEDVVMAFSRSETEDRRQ
# The list shows a part of the results.
# Compound: NCC(=O)Nc1ccc(-n2nc(C(F)(F)F)cc2-c2ccc3c(ccc4ccccc43)c2)cc1
# Assay: log2 fold change, soluble protein after heating vs DMSO (PISA); higher = thermal stabilisation; K562 cells, 10 uM, 30 min; active = over 0.2 and 3.5 SD of the protein, either way, in both replicates (recomputed)
# Procedure, shortened: (§1)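 Soluble protein was quantified by TMTpro 16plex LC-MS/MS after channel sums were equalised. It was obtained as the supernatant after 21,000xg for 90 min from pooled aliquots of K562 cells (2×10^6 cells/mL, 10 μM compound, 30 min) heated for 3 min across 48°C-58°C and extracted in PBS with 0.5% NP-40 at 4°C. Thermal stability values are relative to control samples and come from duplicates. They are given as log2 fold changes.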
row,Target,log2 fold change
1,DCUN1D4 isoform 3 (UniProt Q92564),inactive: -0.207
2,CTNS isoform 2 (UniProt O60931),inactive: 0.022
3,CYTH1 (UniProt Q15438),inactive: -0.092
4,CTSS (UniProt P25774),inactive: 0.053
5,DCP2 (UniProt Q8IU60),inactive: -0.079
6,CYBRD1 (UniProt Q53TN4),inactive: 0.079
7,CTDSP1 (UniProt Q9GZU7),inactive: -0.055
8,CTDNEP1 (UniProt O95476),inactive: 0.022
9,CXXC1 isoform 2 (UniProt Q9P0U4),inactive: -0.026
10,DCAF17 (UniProt Q5H9S7),inactive: 0.031
11,CSRP2 (UniProt Q16527),inactive: 0.11
12,DCUN1D5 (UniProt Q9BTE7),inactive: -0.253
13,CYREN (UniProt Q9BWK5),inactive: 0.068
14,CTNNBL1 (UniProt Q8WYA6),inactive: 0.175
15,CYP4V2 (UniProt Q6ZWL3),inactive: 0.027
16,CTIF (UniProt O43310),inactive: 0.087

# Compound: Nc1ccccc1NC(=O)c1ccc(CNC(=O)OCc2cccnc2)cc1 [entinostat]
# Assay: as above
# Procedure, shortened: as §1
row,Target,log2 fold change
1,CST6 (UniProt Q15828),inactive: 0.227
2,DBNDD1 isoform 3 (UniProt Q9H9R9),inactive: -0.179
3,DCAF4 (UniProt Q8WV16),inactive: 0.005
4,DAPK1 isoform 3 (UniProt P53355),inactive: 0.07
5,DCUN1D4 isoform 3 (UniProt Q92564),inactive: 0.085
6,CTPS1 isoform 2 (UniProt P17812),inactive: 0.034
7,CTNS isoform 2 (UniProt O60931),inactive: 0.012
8,CTSS (UniProt P25774),inactive: -0.013
9,DCAF12 (UniProt Q5T6F0),inactive: -0.003
10,DCP2 (UniProt Q8IU60),inactive: 0.048
11,CTDP1 (UniProt Q9Y5B0),inactive: 0.049
12,CSPG5 (UniProt O95196),inactive: 0.067
13,CTDNEP1 (UniProt O95476),inactive: 0
14,CXXC1 isoform 2 (UniProt Q9P0U4),inactive: -0.095
15,CSRP2 (UniProt Q16527),inactive: -0.027
16,CWF19L2 (UniProt Q2TBE0),inactive: -0.134
17,CTR9 (UniProt Q6PD62),inactive: 0.025
18,DAPK2 isoform 2 (UniProt Q9UIK4),inactive: 0.118
19,CTIF (UniProt O43310),inactive: -0.075
20,CXCL14 (UniProt O95715),inactive: 0.058

# Compound: O=C(CCCCCCC(=O)Nc1ccccc1)NO [vorinostat]
# Assay: as above
# Procedure, shortened: as §1
row,Target,log2 fold change
1,DCAF4 (UniProt Q8WV16),inactive: 0.238
2,CTSS (UniProt P25774),inactive: 0.15
3,CXorf40B (UniProt Q96DE9),inactive: 0.13
4,CTSF (UniProt Q9UBX1),inactive: 0.053
5,DCAF12 (UniProt Q5T6F0),inactive: -0.021
6,CYBRD1 (UniProt Q53TN4),inactive: -0.099
7,CTDSP1 (UniProt Q9GZU7),inactive: -0.098
8,CTDNEP1 (UniProt O95476),inactive: 0.034
9,CXXC1 isoform 2 (UniProt Q9P0U4),inactive: -0.032
10,DCUN1D5 (UniProt Q9BTE7),inactive: -0.061
11,CTDSPL2 (UniProt Q05D32),inactive: 0.039
12,CYREN (UniProt Q9BWK5),inactive: -0.018
13,CUL7 isoform 2 (UniProt Q14999),inactive: 0.181
14,CWF19L2 (UniProt Q2TBE0),inactive: -0.184
15,CTR9 (UniProt Q6PD62),inactive: 0.053
16,CTNNBIP1 (UniProt Q9NSA3),inactive: -0.187
17,CYP4V2 (UniProt Q6ZWL3),inactive: 0.048

# Compound: O=C(CCCCCCNC(=O)c1cnc(N(c2ccccc2)c2ccccc2Cl)nc1)NO [citarinostat]
# Assay: as above
# Procedure, shortened: as §1
row,Target,log2 fold change
1,CST6 (UniProt Q15828),inactive: -0.272
2,DCAF4 (UniProt Q8WV16),inactive: -0.1
3,DCUN1D4 isoform 3 (UniProt Q92564),inactive: 0.095
4,CTNS isoform 2 (UniProt O60931),inactive: 0.077
5,CYTH1 (UniProt Q15438),inactive: 0.083
6,CTSS (UniProt P25774),inactive: 0.19
7,DCAF12 (UniProt Q5T6F0),inactive: -0.033
8,CYBRD1 (UniProt Q53TN4),inactive: -0.034
9,CSPG5 (UniProt O95196),inactive: -0.081
10,DCAF17 (UniProt Q5H9S7),inactive: -0.037
11,CYREN (UniProt Q9BWK5),inactive: 0.009
12,CWF19L2 (UniProt Q2TBE0),inactive: 0.13
13,CTR9 (UniProt Q6PD62),inactive: -0.061
14,CTNNBL1 (UniProt Q8WYA6),inactive: 0.057
15,CYP4V2 (UniProt Q6ZWL3),inactive: 0.024
